Measurements published in US20240075017A1 (priority 2021, published 2024).
For at least one compound, name, drawing or mass did not settle the structure. Some compounds share one wording; it may come from a single statement.

System: SARS-CoV-2-GFP
Assay type: cell-based

| Structure (SMILES) | influence of DZNep co-treatment on the antiviral efficacy of the compound | antiviral activity of co-treatment with DZNep | synergy of combination with DZNep (combination index, CI) | antiviral activity: growth of SARS-CoV-2-GFP reporter virus |
| --- | --- | --- | --- | --- |
| CNC(=O)[C@H](Cc1ccccc1)NC(=O)[C@H](CC(C)C)[C@H](CSc1cccs1)C(=O)NO [BB94, Batimastat] | does not negatively influence the antiviral efficacy |  |  |  |
| C[C@@H]1C[C@H]2[C@@H]3CCC4=CC(=O)C=C[C@]4(C)[C@@]3(F)[C@@H](O)C[C@]2(C)[C@@]1(O)C(=O)CO [dexamethasone] | does not negatively influence the antiviral efficacy | more potent antiviral efficacy when higher concentrations of dexamethasone and DZNep are used in combination |  |  |
| CC1(C)SCCN(S(=O)(=O)c2ccc(Oc3ccncc3)cc2)[C@H]1C(=O)NO [prinomastat] | does not negatively influence the antiviral efficacy |  |  |  |
| CCC(CC)COC(=O)[C@H](C)N[P@](=O)(OC[C@H]1O[C@@](C#N)(c2ccc3c(N)ncnn23)[C@H](O)[C@@H]1O)Oc1ccccc1 [remdesivir] | does not negatively influence the antiviral efficacy | highly synergistic | high degree of synergy |  |
| CCN(c1cc(-c2ccc(CN3CCOCC3)cc2)cc(C(=O)NCc2c(C)cc(C)[nH]c2=O)c1C)C1CCOCC1 [tazemetostat] |  |  |  | treatment-dependent decrease of virus proliferation |
